In US20170095417A1, “Percutaneous Implement and Method for Manufacturing” (priority 2015, published 2017):

Details: rat, in vivo

## CCN(CC)CC(=O)Nc1c(C)cccc1C [Lidocaine]
  Lidocaine detected in the plasma: 0.003 to 0.01 mg
